## Primary screen of a compound library

Measurements from “University of Dundee, Small-Polar-MMV Screening Library” (2021), ChEMBL document CHEMBL3988442.

Each number is a percent effect as filed.
The controls that fix the scale are not given in the record; negative values are as filed.
Compounds were drawn at random from those tested, without regard to their results.
Two or more numbers in one place are separate tests of the same structure; such repeats can differ widely.

A: 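Growth of Mycobacterium tuberculosis over 4 days (cholesterol / DPPC medium with tyloxapol); the read-out is not stated. Compounds at 50 µM. Direction is inferred from retests: higher values go with more growth inhibition. Of about 69,000 compounds tested this way, about 370 (0.54%) reached 50% or more in at least one test.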
B: 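Whole-cell growth test on Mycobacterium tuberculosis, read after 3 days in glucose-containing 7H9 medium; the read-out is not stated. Concentration: 50 µM. Direction is inferred from retests: higher values go with more growth inhibition. Of about 69,000 compounds tested this way, about 760 (1.1%) reached 50% or more in at least one test.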

* CS(=O)(=O)N1CCC(c2nnc3ccc(C(=O)NC4CCC4)cn23)C1 (stereo unspecified) | A: 11.74%; B: 23.66%
* Cc1noc(CN(Cc2cccc(C#N)c2)Cc2ccco2)n1 | A: 26.97%; B: 25.13%
* [H][C@]12CC[C@]([H])(CN(C(=O)c3cnccn3)C1)N(Cc1cnn(CC)c1)C2 | A: 5.042%; B: -5.353%
* CC(C(=O)NCc1ccc(N2CCNC(=O)C2)cc1)c1cccs1 (stereo unspecified) | A: -10.2%; B: 1.17%
* CC(C)OCc1ncn2c1CN(CCO)CCC2.O=C(O)C(F)(F)F | A: 4.694%; B: -12.63% & -10.93%
* CN(C)c1ccc(C(=O)NCc2cccnc2-n2cncn2)cc1F | A: 0.9721%; B: 11.13%
* O=C(Cc1c[nH]c2ccccc12)N1CCC(Nc2cccnc2)CC1 | A: -16.11%; B: -22.27%
* CC1CCC(NS(=O)(=O)CC(=O)Nc2ccc(N3CCCC3)cn2)CC1 (stereo unspecified) | A: -2.425%; B: 16.8%
* Cc1csc(C2CCCN(C(=O)c3c[nH]c(C)n3)C2)n1 (stereo unspecified) | A: -13.61%; B: -1.9%
* CN1C(=N)NC(=O)/C1=C\c1ccc(-c2ccc(F)cc2)o1 | A: -7.581%; B: 3.633%
* O=C(NC1CC1)N1CCCC2(CCNC2=O)C1 (stereo unspecified) | A: 8.469%; B: -20.24%
* COc1nn(C)c2c1CCCN(C(=O)c1cccc(C)n1)C2.O=C(O)C(F)(F)F | A: 2.192%; B: 0.9921%
* Cc1cc(C(F)(F)F)nc(CNc2cc(C)nc3cc(C)nn23)n1 | A: -1.132%; B: -0.5203%
* CS(=O)(=O)c1ccc(CNc2nccc(C(F)(F)F)n2)cc1 | A: 15.21%; B: 0.7116%
* Cc1ccc2c(n1)N(CCN(C)C)CCN(C(=O)c1ccco1)C2 | A: -4.104% & -7.182%; B: 3.699%
* c1coc(CN2Cc3nccn3CC(Cn3cncn3)C2)c1 (stereo unspecified) | A: -13.73%; B: -16.98%
* CC(C)NC(=O)NCCn1nc(C(F)(F)F)n(C)c1=O | A: 13.41%; B: 3.902%
* [H][C@@]12CS(=O)(=O)C[C@]1([H])NCCN2c1ccnc(N(C)Cc2nccs2)n1 | A: -5.303%; B: 14.19%
* Cl.NCC1CCCCN1C(=O)Cc1ccc(F)c(F)c1 (stereo unspecified) | A: 10.15%; B: 14.55%
* CCC(C)NC(=O)c1cccc(CNCc2csc(C(C)C)n2)c1 (stereo unspecified) | A: -20.58%; B: -22.31%
* Cc1nc(C(C)C)ncc1C(=O)N1CCC(c2ccccc2C(=O)O)C1 (stereo unspecified) | A: 19.49%; B: -16.04% & -2.529%
* Cc1nccc(C2CCCN(C(=O)c3cncnc3)C2)n1 (stereo unspecified) | A: -4.396%; B: -13.44%
* Cc1ccccc1-n1cc(C2=CCN(CCn3cc[nH]c3=O)CC2)cn1 | A: 17.3% & 23.28%; B: -6.772%
* Cc1cc(Cl)c(C)c(S(=O)(=O)N2CCN(Cc3ccccn3)CC2)c1Cl | A: 8.376%; B: 24.24%
* O=C(O)C(F)(F)F.[H][C@@]12CCN(Cc3c(C)noc3C)C[C@]1(C(=O)N1CCOCC1)CCO2 | A: -10.72%; B: 9.674%
* COc1ccccc1-c1noc(CN2CCCC2Cn2cccn2)n1 (stereo unspecified) | A: 13.88%; B: 3.718%
* CCn1cc(C(=O)NCc2csc(C3CC3)n2)c(C)n1 | A: 1.039%; B: 4.199% & 3.374%
* CC(=O)N1CCN(C(=O)c2sc(-c3ccccc3F)nc2C)CC1 | A: -63.33%; B: -38.27%
* C[C@]1(O)CN(Cc2ncccc2F)CC[C@@H]1Oc1cccc(F)c1 | A: 5.777%; B: -8.297%
* CCOC(=O)c1ccc(Nc2ccc(OC)c(N3CCCC3=O)c2)nc1 | A: -4.953%; B: 16.98% & -2.102%
* Cc1noc(CCNC(=O)c2ccc(N(C)C)c(F)c2)n1 | A: -19.68%; B: -2.281% & -20.86%
* COc1c(CNCCc2c[nH]c3cc(F)ccc23)c(C)nn1C | A: -6.28% & -8.554%; B: 24%
* O=C(Nc1nnn[nH]1)c1cc(-c2ccc(Br)s2)n[nH]1 | A: 15.94%; B: 3.548% & 7.82%
* CN(C)S(=O)(=O)c1ccc(CSCC(=O)NC(C)(C)C)o1 | A: -8.14%; B: 0.9586%
* Cc1ccc2c(c1)c(C)cc(=O)n2CC(=O)O | A: -2.124% & 17.68%; B: -40.76%
* O=C(c1cnccn1)N1CCc2ncnc(C3CCOC3)c2CC1 (stereo unspecified) | A: -8.476% & 6.284%; B: 0.3675%
* CC(C)OCCCNS(=O)(=O)c1ccc2c(c1)NC(=O)C(C)O2 (stereo unspecified) | A: -9.523%; B: 8.082%
* Cc1nc(C2CCCN2C(=O)c2ccc(=O)n(C)n2)no1 (stereo unspecified) | A: -12.56%; B: -9.44% & 7.215%
* COCCc1nnc(NC(=O)CCCc2ccccc2)o1 | A: -21.93%; B: -22.48%
* CS(=O)(=O)N1CCCc2sc(C(=O)NC3CC3)nc21 | A: -10.74%; B: 3.55% & 19.43%

4 of the entries, repeated:

structure	A	B
CC(=O)N1CCN(C(=O)c2sc(-c3ccccc3F)nc2C)CC1	-63.33	-38.27
O=C(c1cnccn1)N1CCc2ncnc(C3CCOC3)c2CC1 (stereo unspecified)	-8.476 & 6.284	0.3675
CS(=O)(=O)N1CCCc2sc(C(=O)NC3CC3)nc21	-10.74	3.55 & 19.43
Cc1nccc(C2CCCN(C(=O)c3cncnc3)C2)n1 (stereo unspecified)	-4.396	-13.44